Here are results for 60 compounds from PubChem BioAssay AID2685 (National Center for Advancing Translational Sciences (NCATS), 2010).

The list shows a part of the results. Shown are side measurements of this screen, not its main read-out; they come without a call. Most of these compounds were active or inconclusive in the main read-out, so they are no random draw. The note in brackets gives the kind of curve behind each potency; many fits are weak.

This assay can be described thus: qHTS Assay for Lipid Storage Modulators in Drosophila S3 Cells.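 For cell number change: cells counted by Cell Tracker Red CMTPX staining in the red channel.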 The settings on record: BODIPY lipid droplet fluorescence, 18-24 h; for cell number change: measured here: cell count max response, cells fed with added oleic acid. A digest of the protocol:
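Laser-scanning cytometry quantifies lipid droplet accumulation (500–530 nm total intensity; droplet/cell object ratio) in oleic acid-fed (400 uM added) Drosophila S3 cells treated with a concentration series. 20 uM Triacsin C defined 100% inhibition.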
(In general: In qHTS, concentration-response curves come from the screen itself.)

Where [1] appears, read: measured here: lipid fluorescence (Fed channel) AC50, cells fed with added oleic acid.
Where [2] appears, read: measured here: cell number channel AC50, cells fed with added oleic acid.

Broadly, the AC50 is the concentration giving half of the maximal activity seen. The low end stands for activity at low concentration, the high end for activity only at high concentration.

For the compound `Cc1cc(/C=C2\SC(=S)NC2=O)cc(C)c1O`, the cell number change worked out at 1.66%. The AC50 under setting [1] is 11.6 µM [falling, partial curve].

Turning to `O=C(NC1CCCc2ccccc21)C1CCN(c2nnc(-n3cccc3)s2)CC1` (stereo not given), the AC50 is 1.84 µM [rising, partial curve] under setting [2] and 1.84 µM [rising, partial curve] under setting [1]. For the compound `CCCCC(=O)NC(=S)Nc1ccc(Cl)c(C(=O)O)c1`, the cell number change was determined as 30.6%. Also, the AC50 under setting [2] is 29.1 µM [rising, partial curve].

`CC(C)(C)c1ccc(C(=O)NC(CC(=O)O)c2ccc(OC3CCCC3)cc2)cc1` (stereo not given): the cell number change was found to be 13.1%. For the same compound, the half-maximal activity concentration (AC50) under setting [1] is 23.1 µM [falling, single point]. Regarding `CC1=NC(C)(C)Cc2cc(C)c(C)cc21`, the cell number change came out at 3.84%. The AC50 under setting [1] is 0.116 µM [falling, full curve, poor fit]. For the compound `CCOc1ccc2oc(C(=O)OCC(=O)NCc3ccc(OC)cc3)c(C)c2c1`, the cell number change is -40.8%. For the same compound, the AC50 under setting [2] is 29.1 µM [falling, single point].

For the compound `CCOC(=O)c1ccc(NC(=O)CCC2COc3ccccc3O2)cc1` (stereo not given), the cell number change came out at 8.71%. Besides, the AC50 under setting [1] is 8.2 µM [rising, partial curve, poor fit]. As for `O=C(NCc1ccc(F)cc1)C(c1ccccc1)c1ccccc1`, the cell number change is 20.7%. In addition, the AC50 under setting [1] is 4.11 µM [falling, partial curve, poor fit]. As for `CCOc1ccc(NC(=O)C2C3CCC4C(CCC32)C4(Cl)Cl)cc1` (stereo not given), the cell number change worked out at 14.8%.

In the case of `Cn1c(-c2ccccc2)cnc1NCc1cc2c(cc1[N+](=O)[O-])OCO2`, the concentration at half-maximal activity (AC50) is 6.51 µM [rising, single point] under setting [2] and 0.58 µM [rising, full curve] under setting [1]. On to `Cc1cc(C)c(S(=O)(=O)NC2CC(C)(C)NC(C)(C)C2)cc1C`, for which the cell number change is 35.4%. The AC50 under setting [2] is 0.00517 µM [rising, full curve, poor fit]. Further, the AC50 under setting [1] was 29.1 µM [rising, single point]. On to `CCCN(C(=O)c1cc(-c2ccco2)nc2ccccc12)c1c(N)n(Cc2ccccc2)c(=O)[nH]c1=O`, for which the cell number change was 45.3%. For the same compound, under setting [2], the AC50 was 7.31 µM [rising, partial curve, poor fit]. For the same compound, the concentration at half-maximal activity (AC50) under setting [1] was 7.31 µM [rising, partial curve]. As for `COc1ccc(N2C(=O)c3ccc(C(=O)Nc4cc(OC)ccc4OC)cc3C2=O)cc1`, the cell number change was found to be 12.5%. Take `CCOc1cc(/C=N\NC(=O)c2ccc(NC(=O)C(C)(C)C)cc2)ccc1OC(=O)c1cccc(C)c1`: the cell number change amounted to 7.55%. The AC50 under setting [1] is 0.0651 µM [falling, full curve, poor fit]. Take `COc1cnc(SCCC(F)=C(F)F)[nH]c1=O`: the cell number change is 21.5%. Besides, the AC50 under setting [2] was 2.91 µM [falling, single point].

For `CC(CCc1ccccc1)NC(=O)CNC(=O)COc1ccccc1` (stereo not given), under setting [1], the AC50 is 0.058 µM [falling, partial curve, poor fit].

Consider `Cc1cc2oc(=O)cc(CN(C)Cc3ccc(OC(F)F)cc3)c2cc1Cl`, for which the AC50 under setting [1] is 0.206 µM [rising, single point]. Regarding `COc1ccc(-c2nnc(SCC(=O)Nc3nc4ccccc4s3)n2C)cc1`, the cell number change is -5.01%. On to `N/C(=N\OC(=O)Cc1cccs1)c1ccc(Br)cc1`, for which the cell number change is -50%. Further, the AC50 under setting [2] is 0.651 µM [falling, partial curve, poor fit]. Regarding `COc1ccc(/C=C/C(=O)c2cc(Br)ccc(=O)c2O)cc1`, the cell number change was -17.8%. For the same compound, under setting [1], the concentration at half-maximal activity (AC50) is 58 µM [falling, single point]. As to `COc1ccc(OC)c(NC(=O)C2CCC(CNc3c(N4CCOCC4)c(=O)c3=O)CC2)c1` (stereo not given), the cell number change was determined as 40.5%. The AC50 under setting [2] was 2.91 µM [rising, full curve]. Under setting [1], the AC50 was 1.3 µM [rising, full curve]. Consider `Nc1nonc1C(=O)N/N=C/c1cc2c(cc1[N+](=O)[O-])OCO2`, for which the cell number change turned out to be 20.5%. Besides, the AC50 under setting [1] was 0.206 µM [falling, full curve]. Consider `NC(=O)C1CCCN1` (stereo not given), for which the cell number change was -21.4%. For the same compound, the concentration at half-maximal activity (AC50) under setting [1] was 18.4 µM [falling, partial curve, poor fit].

On to `CC(C)CNC(=O)COC(=O)/C=C/c1ccccc1[N+](=O)[O-]`, for which the cell number change is -0.353%. Moreover, the AC50 under setting [1] was 0.92 µM [falling, full curve].

`CC1Cc2ccccc2N1C(=O)CSc1nc2ccccc2o1` (stereo not given): the cell number change was 13.7%. Also, the AC50 under setting [1] is 18.4 µM [rising, partial curve, poor fit]. In the case of `COCCCn1c(SCC(=O)NC2CCCCC2)nnc1-c1ccco1`, the cell number change was -2.63%. In the case of `C=CCNC(NC(=O)c1ccccc1)(C(=O)OCC)C(F)(F)F` (stereo not given), the cell number change was -31%. The half-maximal activity concentration (AC50) under setting [2] was 25.9 µM [falling, partial curve, poor fit]. In addition, the half-maximal activity concentration (AC50) under setting [1] was 32.6 µM [falling, partial curve]. `CC(Oc1ccc(F)cc1)C(=O)Nc1ccc2ccccc2c1` (stereo not given): the cell number change was -21.4%. On to `COc1ccc(/C=C/c2nc(S(=O)(=O)c3ccccc3)c(NCCCN(C)C)o2)cc1OC`, for which the cell number change was -13.4%. In addition, the AC50 under setting [1] was 2.59 µM [rising, partial curve]. Consider `NC(=O)c1c(NC(=O)Cc2cccs2)sc2c1CCC2`, for which the cell number change was 4.8%. The AC50 under setting [2] was 2.31 µM [rising, partial curve]. For the same compound, under setting [1], the AC50 was 3.26 µM [rising, partial curve]. `O=C(CSc1nnc(-c2ccco2)o1)c1ccc([N+](=O)[O-])cc1`: the cell number change was 59.5%. In addition, the AC50 under setting [2] was 20.6 µM [rising, single point]. In addition, the AC50 under setting [1] was 0.58 µM [rising, single point]. For `CN(C)c1ccc(-c2nnc(-c3ccc(S(=O)(=O)C(F)F)cc3)o2)cc1`, the cell number change came to 18.2%. Also, the AC50 under setting [1] is 1.84 µM [rising, partial curve]. For `COc1ccc(S(=O)(=O)NCCS(=O)(=O)N2CCN(c3ccccc3)CC2)cc1`, the cell number change amounted to 28.2%. Also, the AC50 under setting [1] was 23.1 µM [rising, single point]. Take `COc1ccc2ccccc2c1/C=N/Nc1ccc(Cl)c(C(=O)O)c1`: the cell number change is 1.21%. For the same compound, the AC50 under setting [1] is 2.31 µM [rising, full curve].

As for `O=C(Nc1ccccc1)c1ccccc1CC[N+](=O)[O-]`, the cell number change is 23.9%. Consider `COc1ccc(NC(=O)CSc2nccn2Cc2ccc(F)cc2)cc1`, for which the cell number change was 18.1%. The AC50 under setting [1] is 6.51 µM [rising, partial curve, poor fit]. `COc1ccc(CCNC(=O)c2cc([N+](=O)[O-])ccc2N2CCOCC2)cc1`: the cell number change amounted to 15.5%. For the same compound, the AC50 under setting [2] is 1.84 µM [rising, partial curve].

Regarding `Cc1cc(-c2c(C)n([O-])c(C)c(C)[n+]2=O)ccc1F`, the cell number change amounted to 1.03%. For the same compound, under setting [1], the AC50 is 2.31 µM [rising, partial curve].

Take `Cc1ccnc(NC(=O)c2cc(S(=O)(=O)N3CCCCC3)ccc2Cl)c1`: the cell number change was -0.233%. In the case of `Cc1ccc(SCC(=O)OCC(=O)NC2CCCCCC2)cc1`, the cell number change is 10.9%. The AC50 under setting [1] is 18.4 µM [falling, single point]. For the compound `CCCCNC(=O)CSc1nc(Cc2ccccc2)nc2ccccc12`, the cell number change was -13.6%. The AC50 under setting [1] was 0.13 µM [rising, partial curve, poor fit].

As for `CCOC(=O)Nc1ccc(C)cc1C`, the cell number change came out at 2.06%.

As to `COc1cccc(CNC(=O)CN2C(=O)c3ccccc3S2(=O)=O)c1`, the cell number change is -59.4%. Moreover, the AC50 under setting [2] was 29.1 µM [falling, single point].

Consider `O=C(C[n+]1ccc(C(=O)c2ccccc2)cc1)Nc1ccc(C(F)(F)F)cc1`, for which the cell number change amounted to 15.4%. `Cc1cc(C(=O)Nc2ccc(S(=O)(=O)N3CCOCC3)cc2)ccc1[N+](=O)[O-]`: the cell number change is -30.7%. Under setting [2], the AC50 was 11.6 µM [falling, single point]. For `CC(C)(C)c1ccc(C(=O)NC(=S)Nc2sc3c(c2C#N)CCC3)cc1`, the cell number change is 21.5%. The AC50 under setting [1] is 0.92 µM [rising, full curve]. As to `COc1cccc(C(=O)Nc2cccc(OCC(=O)O)c2)c1`, the cell number change is -36.5%. The AC50 under setting [2] was 1.3 µM [falling, full curve]. For the same compound, under setting [1], the AC50 was 1.03 µM [falling, full curve]. In the case of `CCc1nc2ccc(C(=O)Nc3nnc(C)s3)cc2nc1CC`, the cell number change stood at 17.7%. Moreover, under setting [2], the AC50 is 1.16 µM [rising, single point]. Take `CCOc1ccc(-c2cc(C(=O)N/N=C/c3cccnc3)c3ccccc3n2)cc1`: the cell number change worked out at 22.9%. In addition, the AC50 under setting [1] was 16.4 µM [falling, single point]. `Nn1cc(-c2ccccc2)nc1SCC(=O)N1CCN(S(=O)(=O)c2ccccc2)CC1`: the half-maximal activity concentration (AC50) is 1.84 µM [rising, partial curve] under setting [2] and 1.84 µM [rising, partial curve] under setting [1]. Take `CN1CCN(CCCCC(=O)c2ccccc2)CC1`: the cell number change is -13.9%. In addition, the AC50 under setting [1] is 5.8 µM [falling, partial curve, poor fit].

As for `Cc1cc(C)cc(N(CC(=O)NC2CCCC2)C(=O)CCC(=O)Nc2cc(C)ccn2)c1`, the cell number change was found to be 1.32%. Consider `COc1ccc(C)cc1NC(=O)CCc1ccc(S(=O)(=O)N2CCOCC2)cc1`, for which the cell number change is -1.88%. Further, the AC50 under setting [1] was 29.1 µM [falling, single point].

Turning to `Cc1ccccc1NC1=C/C(=N\S(=O)(=O)c2ccc(C(=O)O)cc2)c2ccccc2C1=O`, the cell number change is -29.5%. Moreover, the AC50 under setting [1] is 6.51 µM [rising, single point]. Take `CCCC1(C(=O)OCC)NC(c2cc(OC)c(OC)c(OC)c2)C2C(=O)N(CC)C(=O)C21` (stereo not given): the cell number change was found to be 20.6%. Also, under setting [1], the AC50 was 7.31 µM [falling, single point].

`CCOP(=O)(OCC)c1nc(-c2ccc(OC)cc2)oc1N1CCOCC1`: the cell number change was -0.425%. Moreover, the AC50 under setting [1] is 0.731 µM [falling, full curve, poor fit].

Consider `NC(=O)CS(=O)(=O)c1nc2ccccc2n1Cc1ccccc1F`, for which the cell number change was found to be 100%. Further, the AC50 under setting [2] is 29.1 µM [rising, single point]. For the same compound, the concentration at half-maximal activity (AC50) under setting [1] is 18.4 µM [rising, single point]. Consider `Cc1ccc(C(=O)NCc2ccc(F)cc2)cc1NC1=NC2CS(=O)(=O)CC2S1` (stereo not given), for which the cell number change came to 5.69%. As for `O=[N+]([O-])c1ccc(N/N=C\c2ccccc2OCc2ccccc2)cc1`, the AC50 under setting [1] was 0.651 µM [rising, full curve]. Turning to `CCOC(=O)CSc1nc(N2CCOCC2)c2c(c1C#N)CC(C(C)C)OC2` (stereo not given), the cell number change was -31%. Also, the AC50 under setting [2] was 6.51 µM [rising, single point]. Besides, the AC50 under setting [1] was 23.1 µM [falling, partial curve].
